Measured values taken from PMC5623909.

Tests used:
[1] = molecular target: T1, GSK2-NLuc (GSK2 fused with N-terminal of luciferase protein) (rice) (UniProt Q60EZ2); test: split reporter; split-luciferase complementation in tobacco leaves; chemiluminescence imaged with a cold CCD
T1 sequence: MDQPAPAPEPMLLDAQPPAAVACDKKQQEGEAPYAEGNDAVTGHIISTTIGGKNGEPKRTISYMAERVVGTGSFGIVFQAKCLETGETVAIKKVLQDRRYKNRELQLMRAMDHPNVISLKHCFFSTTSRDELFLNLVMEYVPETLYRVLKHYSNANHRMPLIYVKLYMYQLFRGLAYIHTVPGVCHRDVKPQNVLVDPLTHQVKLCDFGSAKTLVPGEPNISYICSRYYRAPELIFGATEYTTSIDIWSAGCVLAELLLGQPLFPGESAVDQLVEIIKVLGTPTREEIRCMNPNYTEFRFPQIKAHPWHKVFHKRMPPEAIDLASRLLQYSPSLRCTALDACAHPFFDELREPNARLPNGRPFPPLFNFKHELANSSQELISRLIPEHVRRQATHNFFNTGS

[2] = molecular target: T2, GSK2 bait (GSK3-like kinase) (rice) (UniProt Q60EZ2); test: two-hybrid; pairwise test of bait and prey in yeast (Clontech procedures); growth on -Leu/-Trp/-His/-Ade medium
T2 sequence: T1 sequence

[3] = molecular target: T3, DLT bait (GRAS family protein) (rice) (UniProt Q9LWU9); test: as above
T3 sequence: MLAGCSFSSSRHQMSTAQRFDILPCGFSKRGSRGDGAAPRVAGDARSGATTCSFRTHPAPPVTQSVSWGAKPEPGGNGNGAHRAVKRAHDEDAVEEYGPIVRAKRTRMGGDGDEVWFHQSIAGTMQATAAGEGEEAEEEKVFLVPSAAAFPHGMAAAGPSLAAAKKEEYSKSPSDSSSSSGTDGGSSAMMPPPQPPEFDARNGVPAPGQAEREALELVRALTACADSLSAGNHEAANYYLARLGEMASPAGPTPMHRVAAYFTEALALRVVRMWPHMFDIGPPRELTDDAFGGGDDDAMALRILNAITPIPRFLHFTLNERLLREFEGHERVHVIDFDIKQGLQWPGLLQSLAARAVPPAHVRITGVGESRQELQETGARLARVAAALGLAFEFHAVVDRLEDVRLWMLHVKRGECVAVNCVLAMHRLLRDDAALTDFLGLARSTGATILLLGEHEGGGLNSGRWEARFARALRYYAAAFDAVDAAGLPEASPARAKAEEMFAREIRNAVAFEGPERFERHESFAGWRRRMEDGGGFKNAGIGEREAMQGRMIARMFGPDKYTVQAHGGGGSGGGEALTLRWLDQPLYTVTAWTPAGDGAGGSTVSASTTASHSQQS

[4] = molecular target: T4, VN-DLT (DLT fused with the N-terminal part of split Venus YFP) (rice) (UniProt Q9LWU9); test: split reporter; BiFC with split Venus YFP (VC, VN) in transfected rice protoplasts; confocal microscopy
T4 sequence: T3 sequence

[5] = molecular target: T5, GSK2 fused with a half of split Venus YFP (BiFC) (rice) (UniProt Q60EZ2); test: as above
T5 sequence: T1 sequence

“CLuc-OFP1 (OFP1 fused with C-terminal of luciferase protein) (rice)” was tested, and the binding [1] was “binds”.
Full length OFP1 prey (OFP1-AD) (rice) was tested, and the binding [2] was “binds” and the binding [3] was “binds”.
With “VC-OFP1 (OFP1 fused with a half of split Venus YFP) (rice)” the binding [4] was “binds” and the binding [5] was “binds weakly”.

Results are given in words; binding and its absence hold for the method and conditions named. Binding can be weak; no strength is given. For some assays here: Binding seen in cells or lysates may run through a third protein. For some assays here: Sequences can lack the tags named with a protein.
